# Where two headings read alike, the source gives them in different places. No constants are given. Whether binding was seen depends on the method and setting. In cells and extracts the contact can be indirect. Some entries that bind do so weakly or less than the wild type. For some assays here: Tags and fused reporters may be left off the sequences shown.
# T1: METTL14, from pMETTL14 (UniProt Q9HCE5)
# T1 sequence: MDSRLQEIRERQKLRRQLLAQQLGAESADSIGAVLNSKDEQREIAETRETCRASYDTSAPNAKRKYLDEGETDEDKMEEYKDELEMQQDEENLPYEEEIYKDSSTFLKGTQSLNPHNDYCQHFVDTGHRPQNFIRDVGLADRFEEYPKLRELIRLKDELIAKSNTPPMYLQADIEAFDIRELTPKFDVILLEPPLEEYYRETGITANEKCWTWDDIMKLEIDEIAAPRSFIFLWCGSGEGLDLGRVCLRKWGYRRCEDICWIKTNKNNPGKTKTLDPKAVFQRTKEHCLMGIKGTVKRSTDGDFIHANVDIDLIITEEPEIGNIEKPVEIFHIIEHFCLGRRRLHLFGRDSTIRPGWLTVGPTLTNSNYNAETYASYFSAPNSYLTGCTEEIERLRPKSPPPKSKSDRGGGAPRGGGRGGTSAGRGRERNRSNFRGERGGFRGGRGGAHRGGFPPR
# T2: Flag-tagged WT1-associated protein (WTAP), from pFlag-WTAP (UniProt Q15007)
# T2 sequence: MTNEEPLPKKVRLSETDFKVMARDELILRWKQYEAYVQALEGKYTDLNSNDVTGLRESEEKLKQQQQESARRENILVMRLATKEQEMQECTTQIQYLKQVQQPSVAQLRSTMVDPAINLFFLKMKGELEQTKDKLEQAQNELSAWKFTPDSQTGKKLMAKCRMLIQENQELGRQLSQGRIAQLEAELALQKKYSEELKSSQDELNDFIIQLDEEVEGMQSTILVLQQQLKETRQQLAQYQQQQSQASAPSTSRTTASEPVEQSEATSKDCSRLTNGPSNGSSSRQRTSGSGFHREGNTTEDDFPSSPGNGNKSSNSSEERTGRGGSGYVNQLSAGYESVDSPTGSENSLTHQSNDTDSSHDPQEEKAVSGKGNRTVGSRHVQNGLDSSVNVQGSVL
# Key:
# Assay in all cases: co-IP
# [1] = target: HA-tagged SARS-CoV-2 RNA-dependent RNA polymerase (RdRp), from pHA-RdRp (SARS-CoV-2) (UniProt P0DTD1)
# [2] = target: T1, METTL14, from pMETTL14
# [3] = target: T2, Flag-tagged WT1-associated protein (WTAP), from pFlag-WTAP
# [4] = target: Flag-tagged methyltransferase-like 3 (METTL3), from pFlag-METTL3 (UniProt Q86U44)
# [5] = target: HA-tagged SARS-CoV-2 RNA-dependent RNA polymerase (RdRp), from pHA-RdRp (SARS-CoV-2) (UniProt P0DTD1); remark: listed apart in the source
molecule,measurement,setting,value
"Flag-tagged methyltransferase-like 3 (METTL3), from pFlag-METTL3 (from UniProt Q86U44 1-580) (enzyme)",binding,[1],binds
"HA-tagged SARS-CoV-2 RNA-dependent RNA polymerase (RdRp), from pHA-RdRp (from UniProt P0DTD1 4393-5324) (enzyme)",binding,[2],binds
same,binding,[3],binds
same,binding,[4],binds
"METTL14, from pMETTL14 (protein, UniProt Q9HCE5 1-456) MDSRLQEIRERQKLRRQLLAQQLGAESADSIGAVLNSKDEQREIAETRETCRASYDTSAPNAKRKYLDEGETDEDKMEEYKDELEMQQDEENLPYEEEIYKDSSTFLKGTQSLNPHNDYCQHFVDTGHRPQNFIRDVGLADRFEEYPKLRELIRLKDELIAKSNTPPMYLQADIEAFDIRELTPKFDVILLEPPLEEYYRETGITANEKCWTWDDIMKLEIDEIAAPRSFIFLWCGSGEGLDLGRVCLRKWGYRRCEDICWIKTNKNNPGKTKTLDPKAVFQRTKEHCLMGIKGTVKRSTDGDFIHANVDIDLIITEEPEIGNIEKPVEIFHIIEHFCLGRRRLHLFGRDSTIRPGWLTVGPTLTNSNYNAETYASYFSAPNSYLTGCTEEIERLRPKSPPPKSKSDRGGGAPRGGGRGGTSAGRGRERNRSNFRGERGGFRGGRGGAHRGGFPPR",binding,[5],binds

# — article PMC8437041
